Reference: the supplement of paper PMC4604168 (melanoma cell lines)
The list shows a part of the results. Single values are uncertain, as repeats are few or missing.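 Cells were imaged in 1,536-well plates, and nuclei stained with an antibody against cleaved PARP were counted against all DNA-stained nuclei to give the apoptosis fraction. Screening doses were chosen to leave most cells alive, and resting and induced cleaved-PARP levels differ strongly between cell lines.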

System: LOXIMVI
Test: cleaved PARP positive nuclei fraction relative to DMSO control; melanoma cells; higher = more apoptosis
Details: library dose: low library concentration; 72 h

SMILES | cleaved PARP positive nuclei fraction [%]
C[C@@H](N)c1ccc(C(=O)Nc2ccnc3[nH]ccc23)cc1 + CC(C)C[C@H](NC(=O)[C@H](Cc1ccccc1)NC(=O)c1cnccn1)B(O)O [Bortezomib] (first compound 0.4 µM, partner dose 0.001 µM) | 287
C[C@]1(O)C[C@@H](c2nc(-c3ccc4ccc(-c5ccccc5)nc4c3)c3c(N)nccn32)C1 + CS(=O)(=O)CCNCc1ccc(-c2ccc3ncnc(Nc4ccc(OCc5cccc(F)c5)c(Cl)c4)c3c2)o1 [lapatinib] (first compound 0.4 µM, partner dose 0.8 µM) | 128
Cn1sc(=O)n(Cc2ccccc2)c1=O + CNC(=O)c1cc(Oc2ccc(NC(=O)Nc3ccc(Cl)c(C(F)(F)F)c3)cc2)ccn1 [sorafenib] (first compound 0.4 µM, partner dose 0.4 µM) | 59
CN(c1ncccc1CNc1nc(Nc2ccc3c(c2)CC(=O)N3)ncc1C(F)(F)F)S(C)(=O)=O + CS(=O)(=O)CCNCc1ccc(-c2ccc3ncnc(Nc4ccc(OCc5cccc(F)c5)c(Cl)c4)c3c2)o1 [lapatinib] (first compound 0.08 µM, partner dose 0.8 µM) | 156
CCCCCCCCc1ccc(CCC(N)(CO)CO)cc1 [fingolimod] + CC(=O)O[C@@]12CO[C@@H]1C[C@H](O)[C@@]1(C)C(=O)[C@H](O)C3=C(C)[C@@H](OC(=O)[C@H](O)[C@@H](NC(=O)OC(C)(C)C)c4ccccc4)C[C@@](O)([C@@H](OC(=O)c4ccccc4)[C@H]21)C3(C)C [Docetaxel] (first compound 2 µM, partner dose 0.0001 µM) | 160
CCCCCCCCc1ccc(CCC(N)(CO)CO)cc1 [fingolimod] + COCC[n+]1c2c(n(Cc3cnccn3)c1C)C(=O)c1ccccc1C2=O [YM155] (first compound 2 µM, partner dose 0.0004 µM) | 72.7
NC1(c2ccc(-c3nc4ccn5c(=O)[nH]nc5c4cc3-c3ccccc3)cc2)CCC1 + C[C@@H](Oc1cc(-c2cnn(C3CCNCC3)c2)cnc1N)c1c(Cl)ccc(F)c1Cl [Crizotinib] (first compound 0.4 µM, partner dose 0.2 µM) | 142
C[C@]1(O)C[C@@H](c2nc(-c3ccc4ccc(-c5ccccc5)nc4c3)c3c(N)nccn32)C1 + Cc1cc(Nc2cc(N3CCN(C)CC3)nc(/C=C/c3ccccc3)n2)n[nH]1 [ENMD2076] (first compound 0.4 µM, partner dose 0.04 µM) | 117
Cn1sc(=O)n(Cc2ccccc2)c1=O + C[C@@H](Oc1cc(-c2cnn(C3CCNCC3)c2)cnc1N)c1c(Cl)ccc(F)c1Cl [Crizotinib] (first compound 0.4 µM, partner dose 0.2 µM) | 210
NC(=O)c1ccc(N(C(N)=O)c2c(F)cccc2F)nc1-c1ccc(F)cc1F + CCCCCCCCc1ccc(CCC(N)(CO)CO)cc1 [fingolimod] (first compound 0.4 µM, partner dose 2 µM) | 107
NC1(c2ccc(-c3nc4ccn5c(=O)[nH]nc5c4cc3-c3ccccc3)cc2)CCC1 + CO[C@H]1C[C@@H]2CC[C@@H](C)[C@@](O)(O2)C(=O)C(=O)N2CCCC[C@H]2C(=O)O[C@H]([C@H](C)C[C@@H]2CC[C@@H](OCCO)[C@H](OC)C2)CC(=O)[C@H](C)/C=C(\C)[C@@H](O)[C@@H](OC)C(=O)[C@H](C)C[C@H](C)/C=C/C=C/C=C/1C [everolimus] (first compound 0.4 µM, partner dose 0.02 µM) | 161

System: MEL-HO
Test: as above
Details: library dose: low library concentration; 72 h

SMILES | cleaved PARP positive nuclei fraction [%]
CS(=O)(=O)c1ccc(C(=O)Nc2ccc(Cl)c(-c3ccccn3)c2)c(Cl)c1 [vismodegib] + OCc1c[nH]c2ccccc12 [Indole-3-carbinol] (first compound 1 µM, partner dose 0.8 µM) | 96.9
COc1ccc(C2=N[C@@H](c3ccc(Cl)cc3)[C@@H](c3ccc(Cl)cc3)N2C(=O)N2CCNC(=O)C2)c(OC(C)C)c1 [Nutlin-3] + NC1(c2ccc(-c3nc4ccn5c(=O)[nH]nc5c4cc3-c3ccccc3)cc2)CCC1 [MK2206] (first compound 0.1 µM, partner dose 0.4 µM) | 81.6
COc1ccc(C2=N[C@@H](c3ccc(Cl)cc3)[C@@H](c3ccc(Cl)cc3)N2C(=O)N2CCNC(=O)C2)c(OC(C)C)c1 [Nutlin-3] + Clc1ccc(Nc2nnc(Cc3ccncc3)c3ccccc23)cc1 [vatalanib] (first compound 0.1 µM, partner dose 2 µM) | 129
Cn1sc(=O)n(Cc2ccccc2)c1=O + CN(c1ncccc1CNc1nc(Nc2ccc3c(c2)CC(=O)N3)ncc1C(F)(F)F)S(C)(=O)=O [PF562271] (first compound 0.4 µM, partner dose 0.08 µM) | 244
Cn1cnc2c(F)c(Nc3ccc(Br)cc3Cl)c(C(=O)NOCCO)cc21 [selumetinib] + CNC(=O)c1cc(Oc2ccc(NC(=O)Nc3ccc(Cl)c(C(F)(F)F)c3)cc2)ccn1 [sorafenib] (first compound 0.015 µM, partner dose 0.4 µM) | 141
NC1(c2ccc(-c3nc4ccn5c(=O)[nH]nc5c4cc3-c3ccccc3)cc2)CCC1 + CCCS(=O)(=O)Nc1ccc(F)c(C(=O)c2c[nH]c3ncc(Cl)cc23)c1F [PLX4720] (first compound 0.4 µM, partner dose 0.08 µM) | 432
NC(=O)c1ccc(N(C(N)=O)c2c(F)cccc2F)nc1-c1ccc(F)cc1F + C#Cc1cccc(Nc2ncnc3cc(OCCOC)c(OCCOC)cc23)c1 [erlotinib] (first compound 0.4 µM, partner dose 0.8 µM) | 128
C[C@@H](N)c1ccc(C(=O)Nc2ccnc3[nH]ccc23)cc1 + Cn1sc(=O)n(Cc2ccccc2)c1=O [TDZD-8] (first compound 0.4 µM, partner dose 0.4 µM) | 45.8
CS(=O)(=O)c1ccc(C(=O)Nc2ccc(Cl)c(-c3ccccn3)c2)c(Cl)c1 [vismodegib] + CCCCCCCCc1ccc(CCC(N)(CO)CO)cc1 [fingolimod] (first compound 1 µM, partner dose 2 µM) | 39.1
Cn1cnc2c(F)c(Nc3ccc(Br)cc3Cl)c(C(=O)NOCCO)cc21 [selumetinib] + C#Cc1cccc(Nc2ncnc3cc(OCCOC)c(OCCOC)cc23)c1 [erlotinib] (first compound 0.015 µM, partner dose 0.8 µM) | 146
CC1(C)CCC(c2ccc(Cl)cc2)=C(CN2CCN(c3ccc(C(=O)NS(=O)(=O)c4ccc(N[C@H](CCN5CCOCC5)CSc5ccccc5)c(S(=O)(=O)C(F)(F)F)c4)cc3)CC2)C1 + CS(=O)(=O)CCNCc1ccc(-c2ccc3ncnc(Nc4ccc(OCc5cccc(F)c5)c(Cl)c4)c3c2)o1 [lapatinib] (first compound 0.4 µM, partner dose 0.8 µM) | 166
CC1(C)CCC(c2ccc(Cl)cc2)=C(CN2CCN(c3ccc(C(=O)NS(=O)(=O)c4ccc(N[C@H](CCN5CCOCC5)CSc5ccccc5)c(S(=O)(=O)C(F)(F)F)c4)cc3)CC2)C1 + O=C(O)[C@@H]1[O][Sb](=[O])([O][Sb]2(=[O])[O][C@H]([C@H](O)CO)[C@H](O)[C@H](C(=O)O)[O]2)[O][C@H]([C@H](O)CO)[C@@H]1O [stibogluconate] (first compound 0.4 µM, partner dose 2 µM) | 151
CC1(C)CCC(c2ccc(Cl)cc2)=C(CN2CCN(c3ccc(C(=O)NS(=O)(=O)c4ccc(N[C@H](CCN5CCOCC5)CSc5ccccc5)c(S(=O)(=O)C(F)(F)F)c4)cc3)CC2)C1 + Nc1ccn([C@@H]2O[C@H](CO)[C@@H](O)C2(F)F)c(=O)n1 [gemcitabine] (first compound 0.4 µM, partner dose 0.0004 µM) | 97.5
C[C@]1(O)C[C@@H](c2nc(-c3ccc4ccc(-c5ccccc5)nc4c3)c3c(N)nccn32)C1 + CC(=O)O[C@@]12CO[C@@H]1C[C@H](O)[C@@]1(C)C(=O)[C@H](O)C3=C(C)[C@@H](OC(=O)[C@H](O)[C@@H](NC(=O)OC(C)(C)C)c4ccccc4)C[C@@](O)([C@@H](OC(=O)c4ccccc4)[C@H]21)C3(C)C [Docetaxel] (first compound 0.4 µM, partner dose 0.0001 µM) | 311
CC1(C)CCC(c2ccc(Cl)cc2)=C(CN2CCN(c3ccc(C(=O)NS(=O)(=O)c4ccc(N[C@H](CCN5CCOCC5)CSc5ccccc5)c(S(=O)(=O)C(F)(F)F)c4)cc3)CC2)C1 + Cn1sc(=O)n(Cc2ccccc2)c1=O [TDZD-8] (first compound 0.4 µM, partner dose 0.4 µM) | 98.7
C[C@]1(O)C[C@@H](c2nc(-c3ccc4ccc(-c5ccccc5)nc4c3)c3c(N)nccn32)C1 + OCc1c[nH]c2ccccc12 [Indole-3-carbinol] (first compound 0.4 µM, partner dose 0.8 µM) | 280
CN(c1ncccc1CNc1nc(Nc2ccc3c(c2)CC(=O)N3)ncc1C(F)(F)F)S(C)(=O)=O + C[C@]1(c2nc3c(C(N)=O)cccc3[nH]2)CCCN1 [Veliparib] (first compound 0.08 µM, partner dose 1.4 µM) | 146
C[C@]1(O)C[C@@H](c2nc(-c3ccc4ccc(-c5ccccc5)nc4c3)c3c(N)nccn32)C1 + CCCS(=O)(=O)Nc1ccc(F)c(C(=O)c2c[nH]c3ncc(Cl)cc23)c1F [PLX4720] (first compound 0.4 µM, partner dose 0.08 µM) | 98.4

Quoted at random: 2 entries already listed, in no set order.
SMILES | cleaved PARP positive nuclei fraction [%]
C[C@]1(O)C[C@@H](c2nc(-c3ccc4ccc(-c5ccccc5)nc4c3)c3c(N)nccn32)C1 + CC(=O)O[C@@]12CO[C@@H]1C[C@H](O)[C@@]1(C)C(=O)[C@H](O)C3=C(C)[C@@H](OC(=O)[C@H](O)[C@@H](NC(=O)OC(C)(C)C)c4ccccc4)C[C@@](O)([C@@H](OC(=O)c4ccccc4)[C@H]21)C3(C)C [Docetaxel] (first compound 0.4 µM, partner dose 0.0001 µM) | 311
NC1(c2ccc(-c3nc4ccn5c(=O)[nH]nc5c4cc3-c3ccccc3)cc2)CCC1 + CCCS(=O)(=O)Nc1ccc(F)c(C(=O)c2c[nH]c3ncc(Cl)cc23)c1F [PLX4720] (first compound 0.4 µM, partner dose 0.08 µM) | 432
